No constants are given. Whether binding was seen depends on the method and setting. In cells and extracts the contact can be indirect. Some binding calls cover weakened binding; strength is not graded here.
Biological target: GSK3β, mouse (mouse (endogenous in cortex)) (UniProt Q9WV60)
Experiment: co-IP; precleared cortical lysates of wild-type mice (P21-23) in RIPA buffer; immunoprecipitated with mouse anti-Gab1 or anti-GSK3β antibody on protein A-Sepharose beads, 2 hr in 50 mM Tris-HCl; western blot; rabbit IgG as negative control

Protein sequences, listed by entry. Tags and fused reporters are not part of them.
UniProt Q9WV60: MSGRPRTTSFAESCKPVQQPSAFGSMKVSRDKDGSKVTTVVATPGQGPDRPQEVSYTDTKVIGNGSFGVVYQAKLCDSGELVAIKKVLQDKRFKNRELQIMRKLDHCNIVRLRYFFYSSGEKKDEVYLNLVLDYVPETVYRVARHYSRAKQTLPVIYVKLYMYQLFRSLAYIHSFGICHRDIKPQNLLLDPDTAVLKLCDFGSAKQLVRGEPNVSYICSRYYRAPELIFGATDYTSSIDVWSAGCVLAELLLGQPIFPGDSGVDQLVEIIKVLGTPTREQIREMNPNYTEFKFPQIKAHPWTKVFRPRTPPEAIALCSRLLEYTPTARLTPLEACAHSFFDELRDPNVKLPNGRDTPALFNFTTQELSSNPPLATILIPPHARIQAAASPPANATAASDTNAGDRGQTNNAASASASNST

B1: Gab1 (Grb2-associated binder 1), mouse (protein, UniProt Q9QYY0 1-695)
chain: MSGGEVVCSGWLRKSPPEKKLKRYAWKRRWFVLRSGRLTGDPDVLEYYKNDHAKKPIRIIDLNLCQQVDAGLTFNKKEFENSYIFDINTIDRIFYLVADSEEDMNKWVRCICDICGFNPTEEDPVKPLTGSSQAPVDSPFAISTAPASSQMEASSVALPPPYQVISLPPHPDTLGLQDDPQDYLLLINCQSKKPEPNRTLFDSAKPTFSETDCNDNVPSHQTPASSQSKHGMNGFFQQQMMYDCPPSRLTSVSGESSLYNLPRSYSHDVLPKESPSSTEADGELYTFNTPSGTAGVETQMRHVSISYDIPPTPGNTYQIPRTFPESTLGQSSKLDTIPDIPPPRPPKPHPTHDRSPVETCGVPRTASDTDSSYCIPPPAGMTPSRSNTISTVDLNKLRKDASSQDCYDIPRTFPSDRSSSLEGFHSQYKIKSVLTAGGVSGEELDENYVPMNPNSPPRQHSGSFTEPIQEPNYVPMTPGTFDFSSFGMQVPPPAHMGFRSSPKTPPRRPVPVADCEPPPVDRNLKPDRKVKPAPLDIKPLSEWEELQAPVRSPITRSFARDSSRFPMSPRPDSVHSTTSSSDSHDSEENYVPMNPNLSGEDPNLFASNSLDGGSSPMNKPKGDKQVEYLDLDLDSGKSTPPRKQKSSGSGSSMADERVDYVVVDQQKTLALKSTREAWTDGRQSTESETPTKNVK
binding: binds

From PMC6984811
